From PMC5451543

Amino acid sequences for entries named in this document (tags omitted).
UniProt P25786: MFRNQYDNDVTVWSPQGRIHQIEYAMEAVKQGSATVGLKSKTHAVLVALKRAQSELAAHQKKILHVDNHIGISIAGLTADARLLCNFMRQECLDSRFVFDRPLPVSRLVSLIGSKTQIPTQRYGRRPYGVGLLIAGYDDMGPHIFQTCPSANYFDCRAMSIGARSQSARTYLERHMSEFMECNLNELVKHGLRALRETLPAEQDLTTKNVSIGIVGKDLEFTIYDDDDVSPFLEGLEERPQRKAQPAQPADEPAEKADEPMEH
UniProt P62191: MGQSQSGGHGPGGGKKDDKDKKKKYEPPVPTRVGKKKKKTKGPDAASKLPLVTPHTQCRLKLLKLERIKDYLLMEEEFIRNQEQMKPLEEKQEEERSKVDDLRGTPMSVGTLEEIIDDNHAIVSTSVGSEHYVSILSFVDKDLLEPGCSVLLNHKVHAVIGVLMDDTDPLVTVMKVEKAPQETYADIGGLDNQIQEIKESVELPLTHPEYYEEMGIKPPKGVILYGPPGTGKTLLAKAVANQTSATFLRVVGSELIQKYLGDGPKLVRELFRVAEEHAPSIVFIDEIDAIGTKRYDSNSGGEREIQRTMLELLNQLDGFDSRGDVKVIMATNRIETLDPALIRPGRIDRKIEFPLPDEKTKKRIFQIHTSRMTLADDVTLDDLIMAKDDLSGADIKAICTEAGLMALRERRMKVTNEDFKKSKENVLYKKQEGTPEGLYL
UniProt P62195: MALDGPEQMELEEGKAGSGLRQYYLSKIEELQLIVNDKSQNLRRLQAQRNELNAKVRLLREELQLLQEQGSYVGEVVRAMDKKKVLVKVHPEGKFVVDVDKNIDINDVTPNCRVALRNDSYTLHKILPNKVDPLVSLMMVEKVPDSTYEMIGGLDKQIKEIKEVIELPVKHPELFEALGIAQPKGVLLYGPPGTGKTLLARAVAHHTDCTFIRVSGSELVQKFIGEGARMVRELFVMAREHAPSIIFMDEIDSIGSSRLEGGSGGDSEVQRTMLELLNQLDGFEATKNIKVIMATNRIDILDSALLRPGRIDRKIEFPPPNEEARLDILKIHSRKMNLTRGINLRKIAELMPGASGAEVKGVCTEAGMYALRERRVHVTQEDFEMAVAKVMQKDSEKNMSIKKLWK
UniProt P62333: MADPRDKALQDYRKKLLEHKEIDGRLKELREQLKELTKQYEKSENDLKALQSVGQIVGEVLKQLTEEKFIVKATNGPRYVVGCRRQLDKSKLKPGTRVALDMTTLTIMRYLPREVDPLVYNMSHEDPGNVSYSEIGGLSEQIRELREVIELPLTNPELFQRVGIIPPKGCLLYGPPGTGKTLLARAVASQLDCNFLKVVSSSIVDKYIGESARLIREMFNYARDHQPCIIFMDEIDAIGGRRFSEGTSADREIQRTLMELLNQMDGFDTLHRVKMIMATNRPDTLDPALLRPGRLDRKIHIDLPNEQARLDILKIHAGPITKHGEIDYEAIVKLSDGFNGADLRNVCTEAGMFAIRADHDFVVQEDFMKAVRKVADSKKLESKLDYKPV
UniProt O43242: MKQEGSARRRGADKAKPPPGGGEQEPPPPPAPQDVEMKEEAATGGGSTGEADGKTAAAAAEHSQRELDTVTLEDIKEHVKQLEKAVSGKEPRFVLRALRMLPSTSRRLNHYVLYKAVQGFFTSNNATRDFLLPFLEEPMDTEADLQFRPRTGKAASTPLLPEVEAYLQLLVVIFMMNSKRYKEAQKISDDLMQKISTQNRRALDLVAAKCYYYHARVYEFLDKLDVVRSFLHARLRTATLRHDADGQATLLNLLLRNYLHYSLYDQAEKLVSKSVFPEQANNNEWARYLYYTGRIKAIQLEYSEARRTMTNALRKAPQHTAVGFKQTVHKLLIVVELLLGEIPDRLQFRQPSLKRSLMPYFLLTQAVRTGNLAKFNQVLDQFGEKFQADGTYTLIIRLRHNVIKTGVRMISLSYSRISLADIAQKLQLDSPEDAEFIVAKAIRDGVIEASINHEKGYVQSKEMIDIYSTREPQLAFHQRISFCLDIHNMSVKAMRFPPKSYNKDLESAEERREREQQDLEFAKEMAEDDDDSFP
UniProt Q15008: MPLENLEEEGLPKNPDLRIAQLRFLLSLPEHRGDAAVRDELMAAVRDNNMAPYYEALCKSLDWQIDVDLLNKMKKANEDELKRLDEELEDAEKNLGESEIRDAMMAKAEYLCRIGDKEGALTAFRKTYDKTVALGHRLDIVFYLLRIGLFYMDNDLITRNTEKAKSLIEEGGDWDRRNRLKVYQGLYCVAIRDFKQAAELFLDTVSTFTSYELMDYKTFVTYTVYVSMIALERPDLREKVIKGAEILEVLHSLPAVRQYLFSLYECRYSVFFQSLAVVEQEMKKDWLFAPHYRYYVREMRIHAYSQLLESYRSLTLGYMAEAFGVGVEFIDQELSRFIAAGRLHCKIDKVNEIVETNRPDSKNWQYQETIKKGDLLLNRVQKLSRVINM
UniProt P51665: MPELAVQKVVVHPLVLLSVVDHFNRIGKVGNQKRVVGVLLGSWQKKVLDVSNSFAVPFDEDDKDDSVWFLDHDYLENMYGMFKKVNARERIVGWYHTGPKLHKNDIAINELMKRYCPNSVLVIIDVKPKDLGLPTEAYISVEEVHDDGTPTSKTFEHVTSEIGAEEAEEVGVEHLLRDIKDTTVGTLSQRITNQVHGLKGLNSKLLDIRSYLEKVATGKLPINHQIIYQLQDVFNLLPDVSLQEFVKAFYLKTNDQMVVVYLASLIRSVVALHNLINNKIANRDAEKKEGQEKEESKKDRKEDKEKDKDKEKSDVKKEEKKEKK
UniProt O75832: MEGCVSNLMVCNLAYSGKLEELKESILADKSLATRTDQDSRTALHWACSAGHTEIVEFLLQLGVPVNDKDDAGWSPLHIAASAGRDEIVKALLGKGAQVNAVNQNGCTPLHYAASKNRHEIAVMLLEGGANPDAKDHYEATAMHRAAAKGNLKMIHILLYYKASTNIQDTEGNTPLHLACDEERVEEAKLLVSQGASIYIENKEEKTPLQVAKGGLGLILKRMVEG
UniProt O00232: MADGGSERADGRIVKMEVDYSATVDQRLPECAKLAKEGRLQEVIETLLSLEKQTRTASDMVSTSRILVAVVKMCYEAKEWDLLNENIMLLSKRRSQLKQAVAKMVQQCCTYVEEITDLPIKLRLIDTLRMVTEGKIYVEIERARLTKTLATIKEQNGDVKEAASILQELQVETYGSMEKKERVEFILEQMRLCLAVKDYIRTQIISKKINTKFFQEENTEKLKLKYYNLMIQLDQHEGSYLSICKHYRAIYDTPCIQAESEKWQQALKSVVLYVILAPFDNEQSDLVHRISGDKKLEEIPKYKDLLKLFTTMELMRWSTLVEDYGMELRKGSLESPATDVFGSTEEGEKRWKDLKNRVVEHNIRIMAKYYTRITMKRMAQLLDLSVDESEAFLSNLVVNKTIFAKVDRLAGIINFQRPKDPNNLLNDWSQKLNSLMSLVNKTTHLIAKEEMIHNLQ
UniProt Q9UNM6: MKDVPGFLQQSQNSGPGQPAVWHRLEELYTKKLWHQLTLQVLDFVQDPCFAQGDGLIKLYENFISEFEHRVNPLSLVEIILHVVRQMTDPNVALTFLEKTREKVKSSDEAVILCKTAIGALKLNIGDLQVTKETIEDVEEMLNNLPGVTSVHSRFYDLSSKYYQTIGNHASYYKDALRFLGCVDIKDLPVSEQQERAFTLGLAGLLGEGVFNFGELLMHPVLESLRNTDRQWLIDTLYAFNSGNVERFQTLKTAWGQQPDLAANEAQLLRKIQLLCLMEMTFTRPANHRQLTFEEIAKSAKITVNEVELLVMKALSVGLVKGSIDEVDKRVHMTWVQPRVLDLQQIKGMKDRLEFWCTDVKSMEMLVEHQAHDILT
UniProt O00487: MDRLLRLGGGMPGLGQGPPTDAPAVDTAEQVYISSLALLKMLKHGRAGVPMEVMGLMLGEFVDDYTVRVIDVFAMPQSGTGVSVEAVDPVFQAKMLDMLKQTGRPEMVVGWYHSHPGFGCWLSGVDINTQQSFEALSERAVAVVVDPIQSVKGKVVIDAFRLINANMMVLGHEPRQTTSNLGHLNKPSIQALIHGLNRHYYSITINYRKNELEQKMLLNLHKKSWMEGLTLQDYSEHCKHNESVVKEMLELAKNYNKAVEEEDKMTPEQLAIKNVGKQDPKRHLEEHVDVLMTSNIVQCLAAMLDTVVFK
UniProt Q9BRP4: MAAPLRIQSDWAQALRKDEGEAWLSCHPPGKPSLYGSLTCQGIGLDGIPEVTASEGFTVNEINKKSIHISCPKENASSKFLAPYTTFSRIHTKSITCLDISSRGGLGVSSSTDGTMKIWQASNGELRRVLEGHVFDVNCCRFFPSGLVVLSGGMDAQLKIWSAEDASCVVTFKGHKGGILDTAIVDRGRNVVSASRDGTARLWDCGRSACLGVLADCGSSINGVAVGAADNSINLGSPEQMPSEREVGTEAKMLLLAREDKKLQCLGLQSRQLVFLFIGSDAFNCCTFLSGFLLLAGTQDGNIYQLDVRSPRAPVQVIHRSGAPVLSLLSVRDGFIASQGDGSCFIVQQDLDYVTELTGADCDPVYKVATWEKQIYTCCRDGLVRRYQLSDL
UniProt Q13200: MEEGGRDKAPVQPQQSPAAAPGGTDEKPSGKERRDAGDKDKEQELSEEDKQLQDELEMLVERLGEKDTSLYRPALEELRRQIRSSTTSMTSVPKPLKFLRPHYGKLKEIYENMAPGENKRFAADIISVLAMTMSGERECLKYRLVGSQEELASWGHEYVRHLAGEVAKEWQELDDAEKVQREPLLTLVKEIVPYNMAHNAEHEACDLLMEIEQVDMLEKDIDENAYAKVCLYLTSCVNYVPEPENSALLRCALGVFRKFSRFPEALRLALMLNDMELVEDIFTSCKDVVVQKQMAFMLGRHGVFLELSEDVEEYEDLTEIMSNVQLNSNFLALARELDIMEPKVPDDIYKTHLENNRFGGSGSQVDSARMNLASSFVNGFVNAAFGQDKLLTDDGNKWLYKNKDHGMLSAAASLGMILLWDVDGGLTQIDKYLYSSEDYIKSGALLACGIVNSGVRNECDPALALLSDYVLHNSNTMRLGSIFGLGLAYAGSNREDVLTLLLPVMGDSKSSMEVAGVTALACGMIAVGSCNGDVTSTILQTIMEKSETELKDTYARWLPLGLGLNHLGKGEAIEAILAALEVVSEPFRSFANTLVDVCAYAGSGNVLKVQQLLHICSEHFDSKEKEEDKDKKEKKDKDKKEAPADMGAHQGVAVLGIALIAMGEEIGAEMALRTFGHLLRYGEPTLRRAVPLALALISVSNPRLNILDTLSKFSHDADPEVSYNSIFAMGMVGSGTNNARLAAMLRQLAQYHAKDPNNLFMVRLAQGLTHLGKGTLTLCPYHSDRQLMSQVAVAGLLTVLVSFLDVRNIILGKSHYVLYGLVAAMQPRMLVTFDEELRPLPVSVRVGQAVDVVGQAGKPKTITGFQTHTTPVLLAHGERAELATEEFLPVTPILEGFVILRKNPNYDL

Molecular target: T1, FLAG-UBLCP1 (human) (UniProt Q8WVY7)
T1 sequence: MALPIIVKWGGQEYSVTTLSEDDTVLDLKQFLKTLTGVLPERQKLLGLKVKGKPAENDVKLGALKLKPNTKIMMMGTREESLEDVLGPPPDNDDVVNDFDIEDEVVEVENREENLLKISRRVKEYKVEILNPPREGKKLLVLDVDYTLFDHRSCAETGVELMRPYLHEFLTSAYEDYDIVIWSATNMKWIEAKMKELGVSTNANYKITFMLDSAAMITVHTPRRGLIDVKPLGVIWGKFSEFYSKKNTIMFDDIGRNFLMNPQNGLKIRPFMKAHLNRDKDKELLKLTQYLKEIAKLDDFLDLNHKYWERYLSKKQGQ
Experiment: affinity purification with mass spectrometry; lysates of HEK293T stably overexpressing FLAG-UBLCP1; IP with anti-UBLCP1 antibody or control rabbit IgG; IP products analysed by mass spectrometry

Substance | binding
PSMA1 (from UniProt P25786 1-263) | no binding
PSMA2 (from UniProt P25787 1-234) | no binding
PSMA3 (from UniProt P25788 1-255) | no binding
PSMA5 iso.1 (from UniProt P28066 1-241) | no binding
PSMA5 iso.2 (human (endogenous in HEK293T)) | no binding
PSMA6 (from UniProt P60900 1-246) | no binding
PSMA7 (from UniProt O14818 1-248) | no binding
PSMC1 (from UniProt P62191 1-440) | binds
PSMC4 (from UniProt P43686 1-418) | binds
PSMC5 (from UniProt P62195 1-406) | binds
PSMC6 (from UniProt P62333 1-389) | binds
PSMD3 (from UniProt O43242 1-534) | binds
PSMD6 (from UniProt Q15008 1-389) | binds
PSMD7 (from UniProt P51665 1-324) | binds
PSMD10 (from UniProt O75832 1-226) | binds
PSMD12 (from UniProt O00232 1-456) | binds
PSMD13 (from UniProt Q9UNM6 1-376) | binds
PSMD14 (from UniProt O00487 1-310) | binds
endogenous PAAF1 (from UniProt Q9BRP4 1-392) | binds
endogenous Rpn1 (from UniProt Q13200 1-908) | binds

Results are given in words; binding and its absence hold for the method and conditions named. Binding seen in cells or lysates may run through a third protein. A yes stands for co-enrichment or nearness to the bait. Other partners may have been found. No binding means not detected with the bait. Where a sequence is shown, tags or fusion partners need not be part of it.
